These are yes or no findings as the source states them, for the method shown. Tags and fused reporters may be left off the sequences shown.
Biological target: Kluyveromyces lactis Nmd4 (Kluyveromyces lactis) (UniProt Q6CVZ8)
Experiment: SEC-MALS

- binding: no binding (tested: 1 mg/mL)
B1: Kluyveromyces lactis Nmd4 (protein, UniProt Q6CVZ8 1-244)
chain: MILNFIIDSSSFEKGLGNIAIWSKLNDPKLTINAYLPLFTIQELDFQRFKRKSVVAKRALHFIDLLQDSTSFKLHLEYPELNEAISWNETVKLCQQNSHTSLSQHQISVIPIRFKKLLKSCYYKCHYKSHDLDEDIDHTNEKSDPDDKGWVLVTEDDTVRSLATQFQIPFISVVEADAIINACIKDKSYVVNEKFSKTVIKKANKVKEQEDGKKVFVTDFKNDFLAPRAKSGELWTPTSAKNKS

— paper doi:10.1101/2021.12.14.472726
